Laboratory results reported in patent US20240390508A1, “HUMAN TRANSFERRIN RECEPTOR BINDING PEPTIDE-DRUG CONJUGATE” (priority 2021, published 2024).
pKd: −log10 of the molar value. For at least one compound, name, drawing or mass did not settle the structure.

By UniProt entry, the sequences of proteins in these tests, tags left out.
UniProt P02786, whole entry: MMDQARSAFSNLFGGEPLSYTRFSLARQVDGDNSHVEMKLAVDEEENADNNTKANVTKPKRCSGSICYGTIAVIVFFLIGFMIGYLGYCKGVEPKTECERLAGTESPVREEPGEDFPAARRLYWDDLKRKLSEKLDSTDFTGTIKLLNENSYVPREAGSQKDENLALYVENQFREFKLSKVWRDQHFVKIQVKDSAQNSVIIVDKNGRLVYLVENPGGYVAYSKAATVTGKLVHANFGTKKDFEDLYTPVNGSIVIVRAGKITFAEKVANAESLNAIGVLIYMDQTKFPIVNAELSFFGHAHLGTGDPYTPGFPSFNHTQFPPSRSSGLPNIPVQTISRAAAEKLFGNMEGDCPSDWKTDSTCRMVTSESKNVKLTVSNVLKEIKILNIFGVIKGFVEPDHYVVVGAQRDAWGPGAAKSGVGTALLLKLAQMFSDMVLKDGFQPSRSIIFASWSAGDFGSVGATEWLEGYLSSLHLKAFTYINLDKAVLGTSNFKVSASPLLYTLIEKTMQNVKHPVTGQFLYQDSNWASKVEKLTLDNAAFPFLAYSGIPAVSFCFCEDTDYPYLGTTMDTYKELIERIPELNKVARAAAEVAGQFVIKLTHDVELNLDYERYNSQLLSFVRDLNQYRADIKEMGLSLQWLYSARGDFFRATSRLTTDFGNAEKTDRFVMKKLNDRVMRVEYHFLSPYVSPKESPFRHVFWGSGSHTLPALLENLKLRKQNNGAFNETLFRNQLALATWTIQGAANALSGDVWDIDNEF

Target: transferrin receptor (hTfR) (Homo sapiens, UniProt P02786)
Assay: Intermolecular interaction evaluation test between transferrin receptor (hTfR) and peptide-nucleic acid conjugate using surface plasmon resonance (SPR)
Format: binding
Conditions: KD value to hTfR by SPR, Biacore T200, Single Cycle Kinetics, hTfR immobilized on NTA sensor chip
Description: Intermolecular interaction evaluation test between transferrin receptor (hTfR) and peptide using surface plasmon resonance (SPR)
The various synthesized peptide-nucleic acid conjugates were tested for intermolecular interaction by surface plasmon resonance (SPR) of the peptide-nucleic acid conjugate with transferrin receptor (hTfR) using the method shown below. The specific test method is shown below.
NTA sensor chip (Global Life Science Technologies Japan Co., Ltd.) was inserted into Biacore T200 (Global Life Science Technologies Japan Co., Ltd.), prime operation was performed three times with running buffer: 10 mM HEPES pH 8.0 (Nacalai Tesque Co., Ltd.), 150 mM NaCl (Nacalai Tesque Co., Ltd.), 0.05% Tween 20 (Nacalai Tesque Co., Ltd.), 0.1% BSA (SIGMA-ALDRICH), and 1.0% DMSO (FUJIFILM Wako Pure Chemical Corporation), and equilibrated at a flow rate of 30 μL/min. 350 mM EDTA solution was reacted for 60 seconds at a flow rate of 10 μL/min, 0.5 mM NiCl2 solution (Kishida Chemical) was reacted for 60 seconds at a flow rate of 10 μL/min, and the NTA sensor chip was washed with 3 mM EDTA solution (Nacalai Tesque Co., Ltd.) for 60 seconds at a flow rate of 10 μL/min. After mixing 50 μL each of […] EDC solution (Global Life Science Technologies Japan Co., Ltd.) and […] NHS solution (Global Life Science Technologies Japan Co., Ltd.), the mixture was reacted for 420 seconds at a flow rate of 10 μL/min. 150 μL of a 0.5 μM hTfR solution was prepared by diluting with a running buffer and reacted for 300 seconds at a flow rate of 10 μL/min to immobilize hTfR on the NTA sensor chip. After immobilization, capping was performed by reacting with a 1.0 M ethanolamine aqueous solution (Global Life Science Technologies Japan Co., Ltd.) at a flow rate of 10 μL/min for 420 seconds. A peptide-nucleic acid conjugate solution adjusted to 10 mM in DMSO solution was diluted with running buffer to a final concentration of 10 μM peptide-nucleic acid conjugate solution, and 100 nM, 50 nM, 25 nM, 10 nM, 5 nM peptide-nucleic acid conjugate solutions were prepared. Using the aforementioned samples, the kinetics of the peptide against hTfR was obtained by SPR measurement.
The kinetics evaluation model was Single Cycle Kinetics, and curve fitting was performed using Biacore T200 Evaluation Software Version 3.0 (Global Life Science Technologies Japan Co., Ltd.). The obtained sensorgram was subjected to curve fitting using the least squares method, and the binding of the peptide-nucleic acid conjugate to hTfR was evaluated by determining the KD value.

SMILES | pKd
CC[C@H](C)[C@@H]1NC(=O)[C@H](Cc2ccc(O)cc2)NC(=O)[C@H](Cc2ccc(O)cc2)NC(=O)[C@H](CC(N)=O)NC(=O)[C@H](Cc2c[nH]c3ccccc23)NC(=O)[C@H](C(C)C)NC(=O)[C@H](Cc2ccccc2)N(C)C(=O)[C@H](C(C)C)NC(=O)[C@H](C)NC(=O)CSC[C@@H](C(=O)NCC(=O)N[C@@H](CCCCn2nnc3c2CCC2C(CC3)C2COC(=O)NCCCCCCOP(=O)(O)OC[C@@]23CN(C)O[C@@H]([C@H](n4cnc5c(=O)[nH]c(N)nc54)O2)[C@@H]3OP(=O)(S)OC[C@@]23CN(C)O[C@@H]([C@H](n4cnc5c(N)ncnc54)O2)[C@@H]3OP(=O)(S)OC[C@@]23CN(C)O[C@@H]([C@H](n4cnc5c(N)ncnc54)O2)[C@@H]3OP(=O)(S)OC[C@H]2O[C@@H](n3ccc(N)nc3=O)[C@H](O)[C@@H]2OP(=O)(O)OC[C@H]2O[C@@H](n3cnc4c(N)ncnc43)[C@H](O)[C@@H]2OP(=O)(O)OC[C@H]2O[C@@H](n3ccc(N)nc3=O)[C@H](O)[C@@H]2OP(=O)(O)OC[C@H]2O[C@@H](n3ccc(N)nc3=O)[C@H](O)[C@@H]2OP(=O)(O)OC[C@H]2O[C@@H](n3ccc(=O)[nH]c3=O)[C@H](O)[C@@H]2OP(=O)(O)OC[C@H]2O[C@@H](n3ccc(=O)[nH]c3=O)[C@H](O)[C@@H]2OP(=O)(O)OC[C@H]2O[C@@H](n3ccc(N)nc3=O)[C@H](O)[C@@H]2OP(=O)(O)OC[C@H]2O[C@@H](n3cnc4c(N)ncnc43)[C@H](O)[C@@H]2OP(=O)(O)OC[C@H]2O[C@@H](n3cnc4c(=O)[nH]c(N)nc43)[C@H](O)[C@@H]2OP(=O)(O)OC[C@H]2O[C@@H](n3cnc4c(N)ncnc43)[C@H](O)[C@@H]2OP(=O)(O)OC[C@H]2O[C@@H](n3cnc4c(N)ncnc43)[C@H](O)[C@@H]2OP(=O)(O)OC[C@H]2O[C@@H](n3ccc(N)nc3=O)[C@H](O)[C@@H]2OP(=O)(O)OC[C@H]2O[C@@H](n3ccc(N)nc3=O)[C@H](O)[C@@H]2OP(=O)(O)OC[C@H]2O[C@@H](n3cnc4c(=O)[nH]c(N)nc43)[C@H](O)[C@@H]2OP(=O)(O)OC[C@H]2O[C@@H](n3cnc4c(=O)[nH]c(N)nc43)[C@H](O)[C@@H]2OP(=O)(O)OC[C@H]2O[C@@H](n3cnc4c(N)ncnc43)[C@H](O)[C@@H]2OP(=O)(O)OC[C@H]2O[C@@H](n3cnc4c(=O)[nH]c(N)nc43)[C@H](O)[C@@H]2OP(=O)(O)OC[C@H]2O[C@@H](n3cnc4c(=O)[nH]c(N)nc43)[C@H](O)[C@@H]2OP(=O)(O)OC[C@H]2O[C@@H](n3ccc(N)nc3=O)[C@H](O)[C@@H]2OP(=O)(S)OC[C@@]23CN(C)O[C@@H]([C@H](n4cnc5c(N)ncnc54)O2)[C@@H]3OP(=O)(S)OC[C@@]23CN(C)O[C@@H]([C@H](n4cnc5c(N)ncnc54)O2)[C@@H]3OP(=O)(S)OC[C@@]23CN(C)O[C@@H]([C@H](n4cc(C)c(N)nc4=O)O2)[C@@H]3O)C(N)=O)NC(=O)[C@H](Cc2ccc(O)cc2)N(C)C(=O)[C@H](Cc2ccc(O)cc2)NC(=O)[C@H](CCCNC(=N)N)NC(=O)[C@H](CCCNC(=N)N)NC(=O)[C@H]([C@@H](C)CC)NC1=O (stereo partly drawn) [Example 9] | > 7.00
CC[C@H](C)[C@@H]1NC(=O)[C@H](Cc2ccc(O)cc2)NC(=O)[C@H](Cc2ccc(O)cc2)NC(=O)[C@H](CC(N)=O)NC(=O)[C@H](Cc2c[nH]c3ccccc23)NC(=O)[C@H](C(C)C)NC(=O)[C@H](Cc2ccccc2)N(C)C(=O)[C@H](C(C)C)NC(=O)[C@H](C)NC(=O)CSC[C@@H](C(=O)NCC(=O)N[C@@H](CCCCn2nnc3c2CCC2C(CC3)C2COC(=O)NCCCCCCOP(=O)(O)OC[C@H]2O[C@@H](n3cnc4c(=O)[nH]c(N)nc43)[C@H](OC)[C@@H]2OP(=O)(S)OC[C@H]2O[C@@H](n3cnc4c(N)ncnc43)[C@H](OC)[C@@H]2OP(=O)(S)OC[C@H]2O[C@@H](n3cnc4c(N)ncnc43)[C@H](OC)[C@@H]2OP(=O)(S)OC[C@H]2O[C@@H](n3ccc(N)nc3=O)C[C@@H]2OP(=O)(O)OC[C@H]2O[C@@H](n3cnc4c(N)ncnc43)C[C@@H]2OP(=O)(O)OC[C@H]2O[C@@H](n3ccc(N)nc3=O)C[C@@H]2OP(=O)(O)OC[C@H]2O[C@@H](n3ccc(N)nc3=O)C[C@@H]2OP(=O)(O)OC[C@H]2O[C@@H](n3cc(C)c(=O)[nH]c3=O)C[C@@H]2OP(=O)(O)OC[C@H]2O[C@@H](n3cc(C)c(=O)[nH]c3=O)C[C@@H]2OP(=O)(O)OC[C@H]2O[C@@H](n3ccc(N)nc3=O)C[C@@H]2OP(=O)(O)OC[C@H]2O[C@@H](n3cnc4c(N)ncnc43)C[C@@H]2OP(=O)(O)OC[C@H]2O[C@@H](n3cnc4c(=O)[nH]c(N)nc43)C[C@@H]2OP(=O)(O)OC[C@H]2O[C@@H](n3cnc4c(N)ncnc43)C[C@@H]2OP(=O)(O)OC[C@H]2O[C@@H](n3cnc4c(N)ncnc43)C[C@@H]2OP(=O)(O)OC[C@H]2O[C@@H](n3ccc(N)nc3=O)C[C@@H]2OP(=O)(O)OC[C@H]2O[C@@H](n3cc(C)c(N)nc3=O)C[C@@H]2OP(=O)(O)OC[C@H]2O[C@@H](n3cnc4c(=O)[nH]c(N)nc43)C[C@@H]2OP(=O)(O)OC[C@H]2O[C@@H](n3cnc4c(=O)[nH]c(N)nc43)C[C@@H]2OP(=O)(S)OC[C@H]2O[C@@H](n3cnc4c(N)ncnc43)[C@H](OC)[C@@H]2OP(=O)(S)OC[C@H]2O[C@@H](n3cnc4c(=O)[nH]c(N)nc43)[C@H](OC)[C@@H]2OP(=O)(S)OC[C@H]2O[C@@H](n3cnc4c(=O)[nH]c(N)nc43)[C@H](OC)[C@@H]2O)C(N)=O)NC(=O)[C@H](Cc2ccc(O)cc2)N(C)C(=O)[C@H](Cc2ccc(O)cc2)NC(=O)[C@H](CCCNC(=N)N)NC(=O)[C@H](CCCNC(=N)N)NC(=O)[C@H]([C@@H](C)CC)NC1=O (stereo partly drawn) [Example 10] | > 7.00
CC[C@H](C)[C@@H]1NC(=O)[C@H](Cc2ccc(O)cc2)NC(=O)[C@H](Cc2ccc(O)cc2)NC(=O)[C@H](CC(N)=O)NC(=O)[C@H](Cc2c[nH]c3ccccc23)NC(=O)[C@H](C(C)C)NC(=O)[C@H](Cc2ccccc2)N(C)C(=O)[C@H](C(C)C)NC(=O)[C@H](C)NC(=O)CSC[C@@H](C(=O)NCC(=O)N[C@@H](CCCCn2nnc3c2CCC2C(CC3)C2COC(=O)NCCCCCCOP(=O)(O)OC[C@H]2O[C@@H](n3cnc4c(=O)[nH]c(N)nc43)[C@H](OC)[C@@H]2OP(=O)(S)OC[C@H]2O[C@@H](n3cnc4c(N)ncnc43)[C@H](OC)[C@@H]2OP(=O)(S)OC[C@H]2O[C@@H](n3cnc4c(N)ncnc43)[C@H](OC)[C@@H]2OP(=O)(S)OC[C@H]2O[C@@H](n3ccc(N)nc3=O)C[C@@H]2OP(=O)(O)OC[C@H]2O[C@@H](n3cnc4c(N)ncnc43)[C@H](O)[C@@H]2OP(=O)(O)OC[C@H]2O[C@@H](n3ccc(N)nc3=O)C[C@@H]2OP(=O)(O)OC[C@H]2O[C@@H](n3ccc(N)nc3=O)C[C@@H]2OP(=O)(O)OC[C@H]2O[C@@H](n3cc(C)c(=O)[nH]c3=O)C[C@@H]2OP(=O)(O)OC[C@H]2O[C@@H](n3cc(C)c(=O)[nH]c3=O)C[C@@H]2OP(=O)(O)OC[C@H]2O[C@@H](n3ccc(N)nc3=O)C[C@@H]2OP(=O)(O)OC[C@H]2O[C@@H](n3cnc4c(N)ncnc43)[C@H](O)[C@@H]2OP(=O)(O)OC[C@H]2O[C@@H](n3cnc4c(=O)[nH]c(N)nc43)[C@H](O)[C@@H]2OP(=O)(O)OC[C@H]2O[C@@H](n3cnc4c(N)ncnc43)[C@H](O)[C@@H]2OP(=O)(O)OC[C@H]2O[C@@H](n3cnc4c(N)ncnc43)[C@H](O)[C@@H]2OP(=O)(O)OC[C@H]2O[C@@H](n3ccc(N)nc3=O)C[C@@H]2OP(=O)(O)OC[C@H]2O[C@@H](n3ccc(N)nc3=O)C[C@@H]2OP(=O)(O)OC[C@H]2O[C@@H](n3cnc4c(=O)[nH]c(N)nc43)[C@H](O)[C@@H]2OP(=O)(O)OC[C@H]2O[C@@H](n3cnc4c(=O)[nH]c(N)nc43)[C@H](O)[C@@H]2OP(=O)(S)OC[C@H]2O[C@@H](n3cnc4c(N)ncnc43)[C@H](OC)[C@@H]2OP(=O)(S)OC[C@H]2O[C@@H](n3cnc4c(=O)[nH]c(N)nc43)[C@H](OC)[C@@H]2OP(=O)(S)OC[C@H]2O[C@@H](n3cnc4c(=O)[nH]c(N)nc43)[C@H](OC)[C@@H]2O)C(N)=O)NC(=O)[C@H](Cc2ccc(O)cc2)N(C)C(=O)[C@H](Cc2ccc(O)cc2)NC(=O)[C@H](CCCNC(=N)N)NC(=O)[C@H](CCCNC(=N)N)NC(=O)[C@H]([C@@H](C)CC)NC1=O (stereo partly drawn) [Example 11] | > 7.00
